Data from US20080004270A1, “3,4-Disubstituted Pyrazoles as Cyclin Dependent Kinases (Cdk) or Aurora Kinase or Glycogen Synthase 3 (Gsk-3) Inhibitors” (ASTEX THERAPEUTICS LIMITED, priority 2004, published 2008).
Some entries share one result that the patent states for a list of compounds.

What follows are compounds tested against T1, Aurora A kinase (Homo sapiens, UniProt O14965) (assay: Aurora kinase inhibitory activity assay). Settings: Kemptide substrate, γ33P-ATP filter assay; read-out: IC50 against Aurora A kinase.
T1 construct: purchased Upstate Discovery
T1 sequence (O14965 1-403): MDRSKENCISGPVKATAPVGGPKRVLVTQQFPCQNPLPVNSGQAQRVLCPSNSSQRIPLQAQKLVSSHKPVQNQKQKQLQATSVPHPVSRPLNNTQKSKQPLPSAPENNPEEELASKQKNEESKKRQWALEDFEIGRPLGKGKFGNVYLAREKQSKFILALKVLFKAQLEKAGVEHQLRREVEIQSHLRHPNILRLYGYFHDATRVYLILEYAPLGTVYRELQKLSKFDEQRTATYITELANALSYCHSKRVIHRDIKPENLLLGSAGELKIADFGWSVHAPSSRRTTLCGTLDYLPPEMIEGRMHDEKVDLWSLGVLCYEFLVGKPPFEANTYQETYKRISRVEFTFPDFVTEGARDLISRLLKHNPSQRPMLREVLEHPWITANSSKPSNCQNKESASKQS
Type: biochemical

IC50, < 10 µM:
O=C(Nc1c[nH]nc1-c1nc2cc[nH]c(=O)c2[nH]1)c1c(F)cccc1F [Example 1, 2,6-difluoro-N-[3-(4-oxo-4,5-dihydro-3H-imidazo[4,5-c]pyridin-2-yl)-1H-pyrazol-4-yl]-benzamide]
Cc1oc(C(=O)Nc2c[nH]nc2-c2nc3c(=O)n(Cc4ccccc4)ncc3[nH]2)cc1CN1CCOCC1 [Example 2, 5-Methyl-4-morpholin-4-ylmethyl-furan-2-carboxylic acid [3-(5-benzyl-4-oxo-4,5 dihydro-1H-imidazo[4,5-d]pyridazin-2-yl)-1H-pyrazol-4-yl]-amide]
Cc1oc(C(=O)Nc2c[nH]nc2-c2nc3c(=O)n(C)ncc3[nH]2)cc1CN1CCOCC1 [Example 3, 5-Methyl-4-morpholin-4-ylmethyl-furan-2-carboxylic acid [3-(5-methyl-4-oxo-4,5-dihydro-1H-imidazo[4,5-d]pyridazin-2-yl)-1H-pyrazol-4-yl]-amide]
O=C(Nc1c[nH]nc1-c1nc2c([nH]1)CCNC2)c1c(F)cccc1F [Example 4, 2,6-difluoro-N-[3-(4,5,6,7-tetrahydro-1H-imidazol[4,5-c]pyridin-2-yl)-1H-pyrazol-4-yl]-benzamide]
O=C(Nc1c[nH]nc1-c1nc2c([nH]1)CCSC2)c1c(F)cccc1F [Example 5, 2,6-difluoro-N-[3-(1,4,6,7-tetrahydro-thiopyrano[3,4-d]imidazol-2-yl)-1H-pyrazol-4-yl]-benzamide]
CCN1CCc2[nH]c(-c3n[nH]cc3NC(=O)c3c(F)cccc3F)nc2C1 [Example 6, N-[3-(5-ethyl-4,5,6,7-tetrahydro-1H-imidazo[4,5-c]pyridine-2-yl)-1H-pyrazol-4-yl]-2,6-difluoro-benzamide]
O=C(Nc1c[nH]nc1-c1nc2c(=O)n(CCN3CCOCC3)ncc2[nH]1)[C@@H]1CCCO1 [Example 8, S-(−)-Tetrahydro-furan-2-carboxylic acid {3-[5-(2-morpholin-4-yl-ethyl)-4,5-dihydro-1H-imidazo[4,5-d]pyridazin-2-yl]-1H-pyrazol-4-yl}-amide]
